PubChem BioAssay AID1259354 (Paczesny and Yang Labs, IUPUI and University of Michigan, 2018)
Hit rate of the full screen: of about 78,000 compounds, about 1,800 (2.3%) were called active. Inconclusive means that the source gave no clear call. Such entries were picked first, then a sample of the others. No stated cut-off is given here; in the data, active means inhibition above about 30%; inconclusive means mostly about 10% to 28%; inactive means weaker than that.

Sequences of proteins named here, by UniProt entry; tags and fusion partners are left off. A change or cut given only in a name is not applied to a line headed by its entry.
UniProt Q01638: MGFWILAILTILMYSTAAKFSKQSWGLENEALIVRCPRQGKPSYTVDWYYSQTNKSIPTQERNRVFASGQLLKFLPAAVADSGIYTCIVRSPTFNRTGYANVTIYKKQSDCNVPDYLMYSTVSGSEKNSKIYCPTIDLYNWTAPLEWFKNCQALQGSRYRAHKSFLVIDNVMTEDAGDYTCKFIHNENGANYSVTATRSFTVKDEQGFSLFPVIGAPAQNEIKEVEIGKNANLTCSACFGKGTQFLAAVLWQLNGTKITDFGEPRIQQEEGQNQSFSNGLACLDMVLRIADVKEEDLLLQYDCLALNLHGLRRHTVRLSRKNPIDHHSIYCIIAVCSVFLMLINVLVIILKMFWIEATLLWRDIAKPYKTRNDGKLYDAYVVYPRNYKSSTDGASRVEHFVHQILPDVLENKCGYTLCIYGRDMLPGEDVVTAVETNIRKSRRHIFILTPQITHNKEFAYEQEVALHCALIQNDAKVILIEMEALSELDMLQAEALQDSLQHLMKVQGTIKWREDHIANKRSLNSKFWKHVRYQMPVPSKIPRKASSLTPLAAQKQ

The molecules below were run against Interleukin-1 receptor-like 1 (Homo sapiens) (UniProt Q01638) (assay: blocks human ST2 binding to IL-33, primary screen, biochemical, AlphaLISA (AID 1259354)). Conditions: AlphaLISA ST2-Fc/biotin-IL-33 interaction, 1 h; at 17 µM, stronger effect = higher value.

How did the inhibition turn out when `CC(C)CNC(=O)c1cc(-c2ccc(F)cc2)on1` was run?
The inhibition was inconclusive: 27%.

With `CC(C)C(C(=O)Nc1ccccc1F)N1C(=O)c2ccccc2C1=O` (stereo not given) as the molecule, how does the inhibition read?
Its inhibition is inconclusive: 21%.

For `CN1C[C@@H](NC(=O)c2ccccc2)C[C@H]1c1nc(-c2ccc(F)cc2)no1`, which inhibition is on record?
Its inhibition is “inactive”.

Which inhibition does the source give for `COc1ccc(F)c(-c2ncccc2NC(=O)C(C)C)c1` here?
The inhibition was inconclusive: 12%.

Which inhibition does the source give for `O=C(COc1cccc([N+](=O)[O-])c1)Nc1cccc(-c2nnc(-c3ccccc3)o2)c1` here?
The inhibition was inconclusive: 13%.

How did the inhibition turn out when `C=CCc1cc(Cl)ccc1OCCCCn1ccnc1` was run?
The inhibition was inconclusive: 26%.

With `COC(=O)CNc1c(-c2ccccn2)nc2ccccn12` as the molecule, how does the inhibition read?
Its inhibition is “inactive”.

Which inhibition does the source give for `COc1cc(CN2CCC(OC)CC2)ccc1OCC(O)CN1CCCCCCC1` (stereo not given) here?
The inhibition was inconclusive: 15%.

How did the inhibition turn out when `Cc1ccc(S(=O)(=O)/C=C/C#N)cc1` was run?
The inhibition was “inactive”.

With `CC1CCCCN1C(=O)c1oc(=O)c2ccccc2c1-c1ccccc1` (stereo not given) as the molecule, how does the inhibition read?
Its inhibition is “inactive”.

With `Cc1nc(S(=O)(=O)c2ccccc2)c(N2CCCCC2)o1` as the molecule, how does the inhibition read?
Its inhibition is “inactive”.

Which inhibition does the source give for `CCN(c1ccccc1)c1ncnc2c1cnn2-c1ccccc1` here?
Its inhibition is inconclusive: 14%.

Which inhibition does the source give for `NC1CCCc2c1[nH]c1ccc([N+](=O)[O-])cc21` (stereo not given) here?
Its inhibition is inconclusive: 12%.

With `N#CC1=C(N)Oc2c([nH]c(=O)[nH]c2=O)C1c1ccc([N+](=O)[O-])cc1` (stereo not given) as the molecule, how does the inhibition read?
The inhibition was inconclusive: 20%.

For `CC(C)(C)n1nc2c(c1NC(=O)c1ccc(S(=O)(=O)N3CCCC3)cc1)CSC2`, which inhibition is on record?
The inhibition was “inactive”.

Which inhibition does the source give for `CC(C)(C)OC(=O)COc1ccc2cc(-c3nc4ccccc4s3)c(=O)oc2c1` here?
Its inhibition is inconclusive: 12%.

Which inhibition does the source give for `CN(Cc1cc2ccccc2s1)C(=O)c1cc(CN2CCOCC2)on1` here?
The inhibition was inconclusive: 16%.

`Cc1cc(C=Nc2ccc(N3CCOCC3)cc2)c(O)c([N+](=O)[O-])c1` was tested. Which inhibition did it give?
Its inhibition is inconclusive: 23%.

`COc1ccccc1C/C(N)=N\OC(=O)c1ccc2c(c1)OCO2` was tested. Which inhibition did it give?
Its inhibition is inconclusive: 26%.

`CC(C)c1nccc(CN2CCc3[nH]cnc3C2Cc2ccccc2)n1` (stereo not given) was tested. Which inhibition did it give?
Its inhibition is inconclusive: 10%.

`NCC1CN(Cc2ccccc2Cn2cccn2)CCO1` (stereo not given) was tested. Which inhibition did it give?
The inhibition was “inactive”.

Which inhibition does the source give for `CC(=O)c1ccc(OCC(C)C)c(CN2CCCCC2)c1` here?
Its inhibition is inconclusive: 21%.

`CCCn1c(=O)c2[nH]c(-c3ccc(OCC(=O)NCCN)cc3)nc2n(CCC)c1=O` was tested. Which inhibition did it give?
The inhibition was inconclusive: 10%.

With `CC(=O)c1ccc(S(=O)(=O)N2CCOCC2)cc1` as the molecule, how does the inhibition read?
The inhibition was “inactive”.

With `NC(=O)Cn1nc2c3c(cccc3c1=O)-c1ccccc1-2` as the molecule, how does the inhibition read?
Its inhibition is “inactive”.

For `COc1ccc(NC2=CC(c3cccc(OC)c3)N(c3ccc(OC)cc3)C2=O)cc1` (stereo not given), which inhibition is on record?
The inhibition was inconclusive: 16%.

Which inhibition does the source give for `Cc1ccccc1NC(=O)C1(S(=O)(=O)c2ccc(Cl)cc2)CC1` here?
Its inhibition is inconclusive: 16%.

For `CN(Cc1nc2ccc(F)cc2[nH]1)c1ccc(-c2nccn2C)nn1`, which inhibition is on record?
The inhibition was inconclusive: 16%.

`O=C1CCCC2=C1C(c1ccc(Cl)cc1)N(C(=O)c1ccccc1)c1ccccc1N2` (stereo not given) was tested. Which inhibition did it give?
The inhibition was “inactive”.

With `COc1ccc(C2c3sc(=O)[nH]c3SC3C(=O)NC(=O)C32)cc1` (stereo not given) as the molecule, how does the inhibition read?
Its inhibition is inconclusive: 16%.

Which inhibition does the source give for `CC1(C)NC(=O)N(CC(O)COc2ccccc2Br)C1=O` (stereo not given) here?
Its inhibition is inconclusive: 18%.

How did the inhibition turn out when `CC(C)(C)n1nc2c(c1NC(=O)c1ccc(C(=O)c3ccccc3)cc1)CSC2` was run?
The inhibition was inconclusive: 14%.

`C=CCNc1ccccc1C(=O)NCC1CN(S(C)(=O)=O)CCO1` (stereo not given) was tested. Which inhibition did it give?
The inhibition was inconclusive: 12%.

`COc1ccc(-n2c(O)c(C=Nc3ccc(Cl)cc3)c3ccccc3c2=O)cc1` was tested. Which inhibition did it give?
Its inhibition is inconclusive: 22%.

Which inhibition does the source give for `CC1(C)CC(=O)C2=C(C1)Nc1ccccc1NC2c1cccc(O)c1O` (stereo not given) here?
The inhibition was “inactive”.

For `O=C1CCCN1CCCn1ccnc1-c1cccc(-n2cccn2)c1`, which inhibition is on record?
The inhibition was “inactive”.

How did the inhibition turn out when `CCOC(=O)c1sc2ccccc2c1NC(=O)c1ccc2c(c1)OCCO2` was run?
Its inhibition is inconclusive: 16%.

How did the inhibition turn out when `CCOC(=O)C1C(=O)C=C(c2ccc(OC)c(OC)c2)CC1c1ccccc1F` (stereo not given) was run?
The inhibition was inconclusive: 13%.

With `Cc1ccc(-c2noc(CCC(=O)N3CCCC(C)C3)n2)cc1` (stereo not given) as the molecule, how does the inhibition read?
The inhibition was inconclusive: 18%.

How did the inhibition turn out when `Cc1cc(N2CCCC2)nc(N2CCN(S(=O)(=O)c3ccc(F)cc3)CC2)n1` was run?
The inhibition was “inactive”.

With `CC(=O)c1ccc(C(=O)N2CCc3c(cc(-c4ccccc4F)c(=O)n3Cc3ccncc3)C2)cc1` as the molecule, how does the inhibition read?
Its inhibition is inconclusive: 12%.

With `N#Cc1c(NC(=O)c2cc3cc(Br)ccc3oc2=O)sc2c1CCCC2` as the molecule, how does the inhibition read?
The inhibition was “inactive”.

`COc1ccc(-n2ncc3c(N4CCN(c5ccc(F)cc5)CC4)ncnc32)cc1` was tested. Which inhibition did it give?
Its inhibition is “inactive”.

For `Cc1nc(N2CCN(C)CC2)ncc1C(=O)N1C[C@H]2CC=CC[C@H]2C1`, which inhibition is on record?
The inhibition was “inactive”.

With `O=C(C(Cc1ccc([N+](=O)[O-])cc1)N1C(=O)c2ccccc2C1=O)N1CCOCC1` (stereo not given) as the molecule, how does the inhibition read?
The inhibition was inconclusive: 26%.

Which inhibition does the source give for `N#CC1=C([S-])N[C@@](O)(c2ccccc2)[C@H]([n+]2ccc3ccccc3c2)[C@H]1c1cccc(F)c1` here?
Its inhibition is inconclusive: 13%.

Which inhibition does the source give for `C=CC[C@@H]1CC=C[C@@H](C)N1C(=O)c1oc(CC)nc1C` here?
Its inhibition is inconclusive: 20%.

`CCN1CCN(C(=O)C(NC(=O)C2CCC(C)CC2)C(C)C)CC1` (stereo not given) was tested. Which inhibition did it give?
The inhibition was inconclusive: 12%.

Which inhibition does the source give for `CCc1ccc(-c2nc(CN3CCC(C(=O)NCCN4CCCC4)CC3)c(C)o2)cc1` here?
Its inhibition is “inactive”.

With `CC(NC(=O)c1cc2c(=O)n3ccccc3nc2n1C)c1ccccc1` (stereo not given) as the molecule, how does the inhibition read?
The inhibition was “inactive”.

How did the inhibition turn out when `O=C(CC1Nc2ccccc2NC1=O)Nc1ccc(OC(F)F)cc1` (stereo not given) was run?
Its inhibition is inconclusive: 15%.

Which inhibition does the source give for `CCCc1nc2nc[nH]n2c(=O)c1NC(=O)Nc1ccc2c(c1)OCCO2` here?
Its inhibition is inconclusive: 12%.

`O=c1/c(=C/c2ccco2)sc2n1CN(c1cccc([N+](=O)[O-])c1)CN=2` was tested. Which inhibition did it give?
The inhibition was inconclusive: 18%.

How did the inhibition turn out when `Cc1ccnc(NC(=O)CSc2cc(=O)n(C)c3ccccc23)c1` was run?
The inhibition was “inactive”.

For `CCOc1cc(C=NCCN2Cc3ccccc3C2=O)ccc1O`, which inhibition is on record?
Its inhibition is “inactive”.

For `Cc1ccc(NC(=O)CC(=O)N(CC#Cc2ccccc2)C2CC2)cc1`, which inhibition is on record?
Its inhibition is inconclusive: 13%.

`COc1ccc(N2C(=O)c3cccnc3C2=O)cc1` was tested. Which inhibition did it give?
Its inhibition is inconclusive: 18%.

How did the inhibition turn out when `O=C(CC[C@@H]1CNC(=O)[C@@H]2C[C@H](NC(=O)c3cccc(F)c3)CN12)NCc1cccnc1` was run?
The inhibition was inconclusive: 12%.

With `N#CC1=C(N)N(c2sc3c(c2C#N)CCCCC3)C2=C(C(=O)CCC2)C1c1cccnc1` (stereo not given) as the molecule, how does the inhibition read?
The inhibition was inconclusive: 18%.

For `Cc1ccccc1NC(=O)C(NS(=O)(=O)c1cccs1)C(C)C` (stereo not given), which inhibition is on record?
Its inhibition is “inactive”.
